# Data reported in US7485456.
# These are yes or no findings as the source states them, for the method shown. Binding seen in cells or lysates may run through a third protein. Some results given as binding are weak or reduced against the parent protein; the word gives no strength. Sequences can lack the tags named with a protein.
# T1: FLAG/B6/TRAF2 (TRAF2 tagged with FLAG, expressed in HeLa-Bujard cells) (human), Q12933
# T1 chain: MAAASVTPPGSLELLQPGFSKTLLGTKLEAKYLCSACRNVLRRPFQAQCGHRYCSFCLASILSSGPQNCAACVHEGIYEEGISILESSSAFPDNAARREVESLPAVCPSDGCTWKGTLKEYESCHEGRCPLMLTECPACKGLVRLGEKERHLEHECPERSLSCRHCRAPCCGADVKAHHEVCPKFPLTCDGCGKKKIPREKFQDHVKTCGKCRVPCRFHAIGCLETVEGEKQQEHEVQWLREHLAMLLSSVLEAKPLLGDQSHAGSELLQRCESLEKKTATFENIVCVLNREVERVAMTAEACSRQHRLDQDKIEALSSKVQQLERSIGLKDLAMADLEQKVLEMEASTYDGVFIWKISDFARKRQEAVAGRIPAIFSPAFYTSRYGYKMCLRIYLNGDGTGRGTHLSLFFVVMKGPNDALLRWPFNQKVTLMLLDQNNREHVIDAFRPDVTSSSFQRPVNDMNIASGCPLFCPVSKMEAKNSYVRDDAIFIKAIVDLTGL
# Target: T1, FLAG/B6/TRAF2 (TRAF2 tagged with FLAG, …)
# Experiment: co-immunoprecipitation from co-transfected HeLa-Bujard cells, SDS-PAGE, autoradiography
# Conditions: remark: other sources report otherwise
binder,measurement,value
"full-length NIK (NF-kB inducing kinase), Q99558 1-947 (enzyme) MAVMEMACPGAPGSAVGQQKELPKPKEKTPPLGKKQSSVYKLEAVEKSPVFCGKWEILNDVITKGTAKEGSEAGPAAISIIAQAECENSQEFSPTFSERIFIAGSKQYSQSESLDQIPNNVAHATEGKMARVCWKGKRRSKARKKRKKKSSKSLAHAGVALAKPLPRTPEQESCTIPVQEDESPLGAPYVRNTPQFTKPLKEPGLGQLCFKQLGEGLRPALPRSELHKLISPLQCLNHVWKLHHPQDGGPLPLPTHPFPYSRLPHPFPFHPLQPWKPHPLESFLGKLACVDSQKPLPDPHLSKLACVDSPKPLPGPHLEPSCLSRGAHEKFSVEEYLVHALQGSVSSSQAHSLTSLAKTWAARGSRSREPSPKTEDNEGVLLTEKLKPVDYEYREEVHWATHQLRLGRGSFGEVHRMEDKQTGFQCAVKKVRLEVFRAEELMACAGLTSPRIVPLYGAVREGPWVNIFMELLEGGSLGQLVKEQGCLPEDRALYYLGQALEGLEYLHSRRILHGDVKADNVLLSSDGSHAALCDFGHAVCLQPDGLGKSLLTGDYIPGTETHMAPEVVLGRSCDAKVDVWSSCCMMLHMLNGCHPWTQFFRGPLCLKIASEPPPVREIPPSCAPLTAQAIQEGLRKEPIHRVSAAELGGKVNRALQQVGGLKSPWRGEYKEPRHPPPNQANYHQTLHAQPRELSPRAPGPRPAEETTGRAPKLQPPLPPEPPEPNKSPPLTLSKEESGMWEPLPLSSLEPAPARNPSSPERKATVPEQELQQLEIELFLNSLSQPFSLEEQEQILSCLSIDSLSLSDDSEKNPSKASQSSRDTLSSGVHSWSSQAEARSSSWNMVLARGRPTDTPSYFNGVKVQIQSLNGEHLHIREFHRVKVGDIATGISSQIPAAAFSLVTKDGQPVRYDMEVPDSGIDLQCTLAPDGSFAWSWRVKHGQLENRP",binding,binds
